Percent effect of library compounds

The chains behind the UniProt entries cited, without tags or fusion partners. Residues count along the entry.
UniProt Q8IDJ8, 1-583: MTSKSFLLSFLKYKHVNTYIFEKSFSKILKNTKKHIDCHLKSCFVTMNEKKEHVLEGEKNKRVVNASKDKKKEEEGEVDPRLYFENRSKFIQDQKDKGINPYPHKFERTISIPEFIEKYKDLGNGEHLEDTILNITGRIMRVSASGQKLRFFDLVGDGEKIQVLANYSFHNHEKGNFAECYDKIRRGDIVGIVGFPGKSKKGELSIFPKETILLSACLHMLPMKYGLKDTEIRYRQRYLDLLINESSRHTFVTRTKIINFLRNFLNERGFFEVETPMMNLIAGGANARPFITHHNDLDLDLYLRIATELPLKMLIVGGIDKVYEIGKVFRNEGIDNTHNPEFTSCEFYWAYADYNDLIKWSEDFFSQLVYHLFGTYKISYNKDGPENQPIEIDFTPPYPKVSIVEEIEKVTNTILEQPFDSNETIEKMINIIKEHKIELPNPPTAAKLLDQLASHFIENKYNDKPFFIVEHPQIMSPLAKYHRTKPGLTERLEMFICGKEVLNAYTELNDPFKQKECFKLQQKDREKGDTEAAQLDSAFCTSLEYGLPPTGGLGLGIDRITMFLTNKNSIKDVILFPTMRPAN
UniProt I6X8D2, whole entry: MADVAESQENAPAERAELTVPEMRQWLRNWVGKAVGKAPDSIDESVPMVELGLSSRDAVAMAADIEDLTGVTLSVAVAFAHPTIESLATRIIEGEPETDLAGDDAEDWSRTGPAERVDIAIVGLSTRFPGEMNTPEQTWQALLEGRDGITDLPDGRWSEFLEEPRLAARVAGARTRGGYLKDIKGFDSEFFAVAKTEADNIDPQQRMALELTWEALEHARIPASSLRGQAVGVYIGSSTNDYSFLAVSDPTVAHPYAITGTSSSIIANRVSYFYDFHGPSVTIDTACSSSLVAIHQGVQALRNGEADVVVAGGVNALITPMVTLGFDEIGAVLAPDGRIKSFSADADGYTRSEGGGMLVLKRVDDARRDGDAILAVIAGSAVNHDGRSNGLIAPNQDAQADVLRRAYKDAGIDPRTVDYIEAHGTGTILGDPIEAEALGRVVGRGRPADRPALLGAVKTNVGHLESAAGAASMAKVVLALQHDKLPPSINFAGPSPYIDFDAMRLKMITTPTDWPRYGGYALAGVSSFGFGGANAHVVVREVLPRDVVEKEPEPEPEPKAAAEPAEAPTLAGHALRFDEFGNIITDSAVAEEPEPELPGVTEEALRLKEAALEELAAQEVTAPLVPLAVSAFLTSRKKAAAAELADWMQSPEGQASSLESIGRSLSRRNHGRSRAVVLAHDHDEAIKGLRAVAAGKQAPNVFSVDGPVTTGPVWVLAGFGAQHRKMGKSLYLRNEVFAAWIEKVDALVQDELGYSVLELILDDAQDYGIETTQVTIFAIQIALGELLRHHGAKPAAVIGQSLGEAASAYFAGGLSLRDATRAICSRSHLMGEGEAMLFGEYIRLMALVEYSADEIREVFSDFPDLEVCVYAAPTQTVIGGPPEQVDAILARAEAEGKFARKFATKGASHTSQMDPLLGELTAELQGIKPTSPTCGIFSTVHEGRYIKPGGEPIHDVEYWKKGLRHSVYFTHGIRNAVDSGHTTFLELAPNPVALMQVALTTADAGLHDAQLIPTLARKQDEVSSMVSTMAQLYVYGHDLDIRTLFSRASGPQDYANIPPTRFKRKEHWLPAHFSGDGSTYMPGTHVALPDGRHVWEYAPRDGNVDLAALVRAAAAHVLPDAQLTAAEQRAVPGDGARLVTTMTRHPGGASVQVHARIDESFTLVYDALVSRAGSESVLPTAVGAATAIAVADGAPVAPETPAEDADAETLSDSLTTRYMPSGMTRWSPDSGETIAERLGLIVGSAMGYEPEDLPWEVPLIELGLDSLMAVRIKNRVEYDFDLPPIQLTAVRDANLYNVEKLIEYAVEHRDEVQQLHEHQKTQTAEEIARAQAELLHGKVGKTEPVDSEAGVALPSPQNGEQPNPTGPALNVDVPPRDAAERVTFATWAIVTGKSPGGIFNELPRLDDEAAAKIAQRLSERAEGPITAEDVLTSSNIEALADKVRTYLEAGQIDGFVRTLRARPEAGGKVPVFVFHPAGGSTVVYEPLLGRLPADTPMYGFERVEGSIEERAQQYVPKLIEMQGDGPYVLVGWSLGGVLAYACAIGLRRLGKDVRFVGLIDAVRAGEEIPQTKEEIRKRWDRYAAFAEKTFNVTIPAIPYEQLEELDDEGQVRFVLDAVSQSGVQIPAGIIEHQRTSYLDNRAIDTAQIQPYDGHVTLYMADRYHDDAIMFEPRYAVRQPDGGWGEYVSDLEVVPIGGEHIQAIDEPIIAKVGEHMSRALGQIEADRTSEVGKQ
UniProt P9WNZ1, whole entry: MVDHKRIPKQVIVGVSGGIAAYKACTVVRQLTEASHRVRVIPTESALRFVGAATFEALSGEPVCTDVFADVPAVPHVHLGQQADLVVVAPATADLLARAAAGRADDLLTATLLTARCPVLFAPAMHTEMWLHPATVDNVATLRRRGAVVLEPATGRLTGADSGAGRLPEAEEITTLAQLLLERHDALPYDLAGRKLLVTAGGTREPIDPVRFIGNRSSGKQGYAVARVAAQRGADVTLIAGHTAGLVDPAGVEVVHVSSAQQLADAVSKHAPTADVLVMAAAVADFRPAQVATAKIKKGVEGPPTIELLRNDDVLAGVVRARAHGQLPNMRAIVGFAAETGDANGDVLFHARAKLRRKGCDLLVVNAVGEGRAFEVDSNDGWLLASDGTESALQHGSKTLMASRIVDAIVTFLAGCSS
UniProt Q4DA54, 1-478: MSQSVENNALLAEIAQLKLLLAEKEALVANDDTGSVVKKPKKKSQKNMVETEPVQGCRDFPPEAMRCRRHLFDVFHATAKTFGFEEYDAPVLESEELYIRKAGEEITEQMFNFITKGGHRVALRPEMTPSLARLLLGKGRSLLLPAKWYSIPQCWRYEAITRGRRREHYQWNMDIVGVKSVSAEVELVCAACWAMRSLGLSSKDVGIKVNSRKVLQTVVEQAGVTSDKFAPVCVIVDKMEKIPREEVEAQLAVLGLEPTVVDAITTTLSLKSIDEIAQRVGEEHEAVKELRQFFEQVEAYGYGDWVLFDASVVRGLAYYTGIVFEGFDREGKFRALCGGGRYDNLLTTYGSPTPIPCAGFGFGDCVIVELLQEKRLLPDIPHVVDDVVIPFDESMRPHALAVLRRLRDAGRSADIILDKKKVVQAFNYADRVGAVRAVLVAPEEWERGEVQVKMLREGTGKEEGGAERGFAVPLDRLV
UniProt P9WFT3, whole entry: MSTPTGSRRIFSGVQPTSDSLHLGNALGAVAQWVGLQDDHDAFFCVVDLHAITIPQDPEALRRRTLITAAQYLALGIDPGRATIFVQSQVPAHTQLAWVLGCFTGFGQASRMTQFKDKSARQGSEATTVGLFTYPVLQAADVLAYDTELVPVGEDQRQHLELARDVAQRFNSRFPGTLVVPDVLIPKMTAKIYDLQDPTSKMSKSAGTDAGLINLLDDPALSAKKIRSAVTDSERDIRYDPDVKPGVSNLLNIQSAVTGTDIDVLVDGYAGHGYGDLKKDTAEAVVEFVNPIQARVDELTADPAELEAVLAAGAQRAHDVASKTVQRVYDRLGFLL
UniProt P9WPC5, whole entry: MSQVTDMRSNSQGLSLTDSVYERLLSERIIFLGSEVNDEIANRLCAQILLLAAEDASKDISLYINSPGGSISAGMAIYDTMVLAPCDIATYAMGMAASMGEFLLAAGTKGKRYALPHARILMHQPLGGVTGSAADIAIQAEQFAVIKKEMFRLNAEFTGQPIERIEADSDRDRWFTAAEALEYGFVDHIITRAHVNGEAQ
UniProt P9WPC3, whole entry partner: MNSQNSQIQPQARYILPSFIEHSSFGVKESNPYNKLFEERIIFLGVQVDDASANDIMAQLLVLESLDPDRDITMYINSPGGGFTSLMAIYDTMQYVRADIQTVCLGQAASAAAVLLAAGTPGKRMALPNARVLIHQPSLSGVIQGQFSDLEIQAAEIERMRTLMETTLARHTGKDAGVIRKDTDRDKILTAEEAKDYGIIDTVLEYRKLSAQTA

Source: ChEMBL document CHEMBL3988442, “University of Dundee, Small-Polar-MMV Screening Library” (2021).

A: 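Lysine-tRNA ligase, Plasmodium falciparum 3D7 (UniProt Q8IDJ8). Enzyme assay of the cytosolic lysyl-tRNA synthetase in 384-well plates, read by luminescence. Concentration: 30 µM. Higher reads as stronger inhibition, judged from the few compounds that gave an IC50. About 69,000 compounds were tested under these conditions; 0.071% (about 49) showed 50% or more at least once.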
B: 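Polyketide synthase Pks13, Mycobacterium tuberculosis (UniProt I6X8D2). Enzyme assay of the thioesterase domain of polyketide synthase 13; the read-out is not stated. Tested at 30 µM. The record gives no direction; the compounds picked for IC50 retests had high values, so higher reads as stronger inhibition. About 67,000 compounds were tested under these conditions; 0.46% (about 300) showed 50% or more at least once.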
C: 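Enzyme assay of CoaBC with a phosphate dye (Biomol Green) read at 650 nm. Target: Coenzyme A biosynthesis protein CoaBC, Mycobacterium tuberculosis (UniProt P9WNZ1). Compounds at 30 µM. Higher reads as stronger inhibition, judged from the few compounds that gave an IC50. Most strong results did not repeat in a second test. Size under these conditions: about 67,000 compounds, about 40 of them at 50% or above in at least one test.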
D: 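Histidine-tRNA ligase, Trypanosoma cruzi CL Brener (UniProt Q4DA54). Enzyme assay of histidyl-tRNA synthetase; the read-out is not stated. Tested at 30 µM. The record gives no direction; compounds that gave an IC50 in retests scored well above the rest, so higher reads as stronger inhibition. Of about 69,000 compounds tested this way, about 31 (0.045%) reached 50% or more in at least one test.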
E: 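Tryptophan-tRNA ligase, Mycobacterium tuberculosis (UniProt P9WFT3). Enzyme assay of tryptophanyl-tRNA synthetase; the read-out is not stated. Concentration: 10 µM. Higher most likely means stronger inhibition; the record gives no direction and few retests gave an IC50. Of about 65,000 compounds tested this way, about 64 (0.098%) reached 50% or more in at least one test.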
F: 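Protease assay of ClpP1P2, read by the AMC dye that it sets free. Target: ClpP1P2, Mycobacterium tuberculosis (UniProt P9WPC5 and UniProt P9WPC3). Tested at 50 µM. Higher reads as stronger inhibition, judged from the few compounds that gave an IC50. Most other retested compounds had strongly negative values. Of about 69,000 compounds tested this way, about 10 (0.015%) reached 50% or more in at least one test.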

Values are the deposited “Percent Effect”, in %. The controls that fix the scale are not given in the record; negative values are as filed. The compounds are a random part of those screened. A dash means the value is not listed here; it may have been measured.

| # | structure | A | B | C | D | E | F |
|---|---|---|---|---|---|---|---|
| 1 | `Cc1ccccc1OCCn1cnc2oc(C)c(C(=O)O)c2c1=O` | 3.931% | -6.321% | 3.648% | -3.571% | -0.9524% | 7.97% |
| 2 | `CC1(C(=O)NC2CCCC2)CCCN(c2ncccn2)C1` (centres unmarked) | -2.006% | -15.34% | -2.596% | 5.323% | 3.608% | 11.02% |
| 3 | `CC(=O)NCc1noc2c1CN(Cc1ccsc1)CC2` | 1.695% | -30.57% | - | 6.135% | 3.779% | -8.218% |
| 4 | `CC(=O)N1CCC(Cc2nccnc2-c2ccnn2C)CC1` | 1.395% | -5.283% | -3.883% | 10.34% | -3.03% | -15.28% |
| 5 | `CC(=O)Nc1c(C)noc1/C=C\c1ccc(S(=O)(=O)NC2CC2)cc1` | 2.183% | 36.04% | 2.767% | 1% | -5.768% | -5.706% |
| 6 | `O=C([C@@H]1CCO[C@@H]2CCN(Cc3cccs3)C[C@H]21)N1CCCCO1` | 0.08476% | 8.743% | 4.01% | -1.22% | -0.1383% | -11.73% |
| 7 | `CC(C)CN1CCCn2nc(CNC(=O)CCN)cc2C1` | -0.8454% | -7.7% | -19.2% | 8.714% | 4.263% | -17.33% |
| 8 | `CCCc1nc2c(c(C)c(C)n2Cc2cccnc2)c(N)c1CC` | 2.152% | -9.608% | 2.594% | -1.031% | -3.695% | 5.769% |
| 9 | `O=C(NCC(O)COc1cccc(F)c1)c1ccoc1` (centres unmarked) | 4.219% | -37.78% | 2.683% | 6.494% | 6.282% | 9.467% |
| 10 | `CC(=O)N1CCC(c2cncc(Cl)n2)CC1` | -0.6151% | 7.557% | 1.84% | -3.101% | -9.696% | -8.058% |
| 11 | `COCc1nc(CNC2CCSCC2)no1` | -2.544% | -12.93% | 3.947% | 0.8264% | -0.7519% | 0.8559% |
| 12 | `Cc1nn(C)c2cnn(Cc3ccc(C(=O)N4CCN(C)CC4)o3)c12` | -0.3087% | -28.25% | 2.336% | 0.4425% | 0.4599% | -9.591% |
| 13 | `NC(=O)CN1CCN(C(=O)c2cc(Cl)cc3cccnc23)CC1` | -2.028% | -32.46% | -1.316% | 4.399% | 11.76% | -9.156% |
| 14 | `O=C(COCC1CCCO1)N(Cc1cccnc1)c1ccc(F)cc1` (centres unmarked) | 3.639% | 9.062% | -0.3236% | 8.04% | -4.693% | -7.967% |
| 15 | `CC(c1ncc(C(C)(C)C)o1)N1CCN(Cc2ccco2)CC1` (centres unmarked) | -3.088% | -8.623% | 3.365% | 5.063% | -1.941% | -15.62% |
| 16 | `CSCc1noc(CNC(=O)C2CCN(C(C)C)CC2)n1` | 5.604% | -5.617% | 0.9185% | 5.128% | 0.4388% | 6.247% |
| 17 | `Cc1cc(-c2cccc(C(=O)O)c2)nc(C2CCN(C(C)C)CC2)n1` | 1.257% | 1.812% | 1.937% | 0% | - | -6.261% |
| 18 | `CCCOc1ccc(CNC(=O)N2CCC(C(N)=O)C2)cc1` (centres unmarked) | 19.19% | -27.05% | 3.342% | 3.759% | 3.541% | 5.98% |
| 19 | `Cc1ccc(CNC(C)c2ccc3[nH]c(=O)[nH]c3c2)s1` (centres unmarked) | 6.213% | -10.17% | 3.915% | -0.7519% | 1.956% | 10.86% |
| 20 | `Cc1ncc(CN2CCCN(Cc3noc(C4CC4)n3)CC2)s1` | -2.162% | -2.243% | 7.653% | 12.28% | 0.5313% | 6.322% |
| 21 | `O=C(CSC1CCCC1)N1CCN(C(=O)C2CC2c2cccs2)CC1` (centres unmarked) | 5.051% | 12.52% | 13.8% | 6.736% | 7.75% | -8.18% |
| 22 | `O=S(=O)(C1CC1)N1CCO[C@H]2[C@H](OCC3CCCC3)CC[C@@H]21` | -2.231% | -12.9% | -3.68% | 1.622% | -1.994% | -0.8449% |
| 23 | `CN(Cc1ccccc1NCc1cscn1)C(=O)c1cccs1` | 1.316% | -29.83% | 9.046% | 5.464% | 1.937% | -8.04% |
| 24 | `CCn1cc(CN(C)C(=O)C(c2ccccc2C)N(C)C)cn1` (centres unmarked) | 6.521% | -7.382% | -0.8032% | 5.319% | 3.367% | 0.2406% |
| 25 | `O=C(c1cccnc1)N1C[C@@H]2CC[C@H](C1)N(Cc1ccc(F)cc1Cl)C2` | -0.2574% | 6.596% | 3.016% | -1.508% | -2.971% | 12.27% |
| 26 | `Cc1ccsc1CN(C)C(=O)c1cc2c([nH]c1=O)CCCC2=O` | 0.006539% | -19.38% | 3.362% | 3.79% | 0.2903% | -31.01% |
| 27 | `NC(=O)CN1CCC(NCc2cc(C(F)(F)F)ccc2Cl)CC1` | 2.392% | -30.16% | 1.456% | 10.5% | -5.49% | -10.65% |
| 28 | `CSCCC(Nc1nc(C)cc(C)n1)C(=O)NC1CC1` (centres unmarked) | 6.521% | -7.34% | -0.1215% | 8.911% | 3.055% | -2.495% |
| 29 | `CN1CCN([C@@H]2CN(C(=O)CCOc3ccccc3)C[C@H]2O)CC1` | 2.151% | -37.36% | 7.891% | 5.303% | 6.464% | 5.96% |
| 30 | `Cc1ccc(S(=O)(=O)N(C)Cc2nccs2)cc1N(C)C` | 0.02283% | 2.149% | -3.968% | 0% | 2.922% | -6.042% |
| 31 | `CCn1cc(NC(=O)C2CCC(=O)N2Cc2ccc(C)o2)cn1` (centres unmarked) | 10.65% | -28.93% | -5.724% | -15.03% | 4.917% | 10.14% |
| 32 | `Cc1ccc(CN2C[C@@H]3[C@@H](C(=O)NCC4CC4)CCS(=O)(=O)[C@@H]3C2)cc1` | 3.033% | -11.72% | -5.926% | 0.9346% | -6.806% | -10.85% |
| 33 | `CCOc1ccc(NC(=O)N(CCN(C)C)C(C)c2ccncc2)cc1` (centres unmarked) | 2.616% | 1.427% | -1.772% | 4.878% | -1.568% | -13.94% |
| 34 | `Cn1cc(CNCC2(O)CCCCC2)c(-c2cccnc2)n1` | 1.465% | -9.536% | 7.57% | 1.053% | -2.006% | -11.47% |
| 35 | `CN1CC(=O)N(c2ccccc2)CC12CCN(Cc1cccnc1)C2` (centres unmarked) | -2.71% | -7.127% | -20.43% | 0.8264% | 0.7401% | -3.643% |
| 36 | `O=C(c1coc(COc2cccc3cnccc23)n1)N1CCCCCC1` | 2.534% | -2.328% | -50% | 5.435% | -6.202% | -16% |
| 37 | `O=C(NCCN1CCOCC1)NCC(O)c1cccc(F)c1` (centres unmarked) | 8.525% | -9.92% | 2.728% | -1.504% | -6.495% | 7.536% |
| 38 | `CC(=O)N1CCc2c(nc(-c3ccccn3)nc2N(C)CC(O)CO)C1` (centres unmarked) | 2.588% | -13.82% | -3.509% | -3.306% | 2.256% | -6.413% |

The last 4 entries again:

* CN1CC(=O)N(c2ccccc2)CC12CCN(Cc1cccnc1)C2 (centres unmarked) : A: -2.71%; B: -7.127%; C: -20.43%; D: 0.8264%; E: 0.7401%; F: -3.643%
* O=C(c1coc(COc2cccc3cnccc23)n1)N1CCCCCC1 : A: 2.534%; B: -2.328%; C: -50%; D: 5.435%; E: -6.202%; F: -16%
* O=C(NCCN1CCOCC1)NCC(O)c1cccc(F)c1 (centres unmarked) : A: 8.525%; B: -9.92%; C: 2.728%; D: -1.504%; E: -6.495%; F: 7.536%
* CC(=O)N1CCc2c(nc(-c3ccccn3)nc2N(C)CC(O)CO)C1 (centres unmarked) : A: 2.588%; B: -13.82%; C: -3.509%; D: -3.306%; E: 2.256%; F: -6.413%